In PMC9059368:
These are yes or no findings as the source states them, for the method shown. Binding seen in cells or lysates may run through a third protein. Some entries that bind do so weakly or less than the wild type.

By UniProt entry, the sequences of proteins in these tests, tags left out.
UniProt Q92731: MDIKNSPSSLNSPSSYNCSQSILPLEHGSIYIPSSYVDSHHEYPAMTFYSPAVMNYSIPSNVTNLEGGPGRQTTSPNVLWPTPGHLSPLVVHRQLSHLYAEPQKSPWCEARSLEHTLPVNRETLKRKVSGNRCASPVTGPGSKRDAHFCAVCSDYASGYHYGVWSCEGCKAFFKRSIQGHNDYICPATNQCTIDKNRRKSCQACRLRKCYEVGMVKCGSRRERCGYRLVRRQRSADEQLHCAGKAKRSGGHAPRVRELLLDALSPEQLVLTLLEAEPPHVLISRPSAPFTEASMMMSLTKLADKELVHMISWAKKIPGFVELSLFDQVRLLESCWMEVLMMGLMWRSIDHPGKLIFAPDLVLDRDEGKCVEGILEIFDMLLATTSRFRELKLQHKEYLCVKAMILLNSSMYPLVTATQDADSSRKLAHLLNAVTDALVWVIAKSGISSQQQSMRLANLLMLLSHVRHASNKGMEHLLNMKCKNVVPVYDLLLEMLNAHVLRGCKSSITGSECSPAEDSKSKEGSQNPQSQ
UniProt P03372: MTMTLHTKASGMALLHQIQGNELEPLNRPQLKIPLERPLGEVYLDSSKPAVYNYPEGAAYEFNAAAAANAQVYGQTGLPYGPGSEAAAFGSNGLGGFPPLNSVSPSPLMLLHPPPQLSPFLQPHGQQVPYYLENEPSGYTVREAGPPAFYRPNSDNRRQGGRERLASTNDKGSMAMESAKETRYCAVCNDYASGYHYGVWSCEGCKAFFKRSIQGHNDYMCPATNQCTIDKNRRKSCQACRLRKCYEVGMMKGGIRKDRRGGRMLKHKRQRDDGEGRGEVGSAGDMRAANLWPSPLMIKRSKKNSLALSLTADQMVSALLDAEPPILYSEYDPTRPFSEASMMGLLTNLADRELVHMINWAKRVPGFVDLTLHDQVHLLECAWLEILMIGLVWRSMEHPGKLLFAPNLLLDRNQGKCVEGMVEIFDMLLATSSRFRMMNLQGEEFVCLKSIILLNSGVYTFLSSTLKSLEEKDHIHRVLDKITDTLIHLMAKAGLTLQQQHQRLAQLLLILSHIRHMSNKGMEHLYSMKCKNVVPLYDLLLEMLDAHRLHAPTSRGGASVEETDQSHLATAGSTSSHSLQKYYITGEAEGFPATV
UniProt Q13547: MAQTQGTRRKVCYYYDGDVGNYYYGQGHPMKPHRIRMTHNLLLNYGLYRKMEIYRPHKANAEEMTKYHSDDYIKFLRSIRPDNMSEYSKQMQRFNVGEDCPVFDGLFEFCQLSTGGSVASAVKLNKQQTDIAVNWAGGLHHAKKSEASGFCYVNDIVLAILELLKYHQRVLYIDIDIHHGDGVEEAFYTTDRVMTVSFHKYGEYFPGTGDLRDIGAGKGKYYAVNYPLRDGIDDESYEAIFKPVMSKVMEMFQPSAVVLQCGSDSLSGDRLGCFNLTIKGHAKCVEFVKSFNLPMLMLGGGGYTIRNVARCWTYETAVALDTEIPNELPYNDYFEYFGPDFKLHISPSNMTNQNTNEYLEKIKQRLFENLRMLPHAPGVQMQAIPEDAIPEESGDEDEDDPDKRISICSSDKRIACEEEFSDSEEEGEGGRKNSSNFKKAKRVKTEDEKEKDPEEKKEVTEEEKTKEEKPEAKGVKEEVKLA
UniProt Q15022: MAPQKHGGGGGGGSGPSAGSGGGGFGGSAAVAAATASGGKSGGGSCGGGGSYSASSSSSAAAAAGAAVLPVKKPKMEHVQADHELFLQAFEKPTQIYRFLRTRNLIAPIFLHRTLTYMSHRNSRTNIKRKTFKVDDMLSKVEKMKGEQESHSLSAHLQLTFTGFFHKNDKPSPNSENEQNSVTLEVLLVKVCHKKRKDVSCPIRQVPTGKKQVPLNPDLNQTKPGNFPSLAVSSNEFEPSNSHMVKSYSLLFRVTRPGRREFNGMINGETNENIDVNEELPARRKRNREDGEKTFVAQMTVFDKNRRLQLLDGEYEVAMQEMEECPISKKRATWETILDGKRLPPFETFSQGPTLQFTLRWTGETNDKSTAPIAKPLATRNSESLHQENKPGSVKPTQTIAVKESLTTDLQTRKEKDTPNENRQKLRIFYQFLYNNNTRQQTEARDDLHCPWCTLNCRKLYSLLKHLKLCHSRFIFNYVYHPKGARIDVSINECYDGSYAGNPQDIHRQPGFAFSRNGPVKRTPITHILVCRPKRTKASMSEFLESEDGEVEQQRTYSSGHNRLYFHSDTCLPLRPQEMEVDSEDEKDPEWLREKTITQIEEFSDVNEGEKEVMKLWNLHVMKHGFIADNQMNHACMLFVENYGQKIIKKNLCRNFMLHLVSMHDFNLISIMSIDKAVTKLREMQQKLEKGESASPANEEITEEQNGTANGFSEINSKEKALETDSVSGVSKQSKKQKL

What was measured:
[1] = biological target: Flag-tagged estrogen receptor beta (Flag-ERβ) (UniProt Q92731); test: co-IP; anti-Flag IP from lysates of SH-SY5Y neuroblastoma cells transfected with Flag (Vec), Flag-ERα or Flag-ERβ, treated with or without E3, immunoblot
[2] = biological target: Flag-tagged estrogen receptor beta (Flag-ERβ) (UniProt Q92731); test: co-IP; anti-Flag agarose IP from lysates of Ishikawa cells expressing Flag (Vec), Flag-ERα or Flag-ERβ, elution with 3xFlag peptide, immunoblot; Flag-ERα cells also pretreated with DMSO, E2, E3, BPA or DES (1 x 10^-6 M)
[3] = biological target: Flag-tagged estrogen receptor alpha (Flag-ERα) (human) (UniProt P03372); test: co-IP; anti-Flag IP from lysates of SH-SY5Y neuroblastoma cells transfected with Flag (Vec), Flag-ERα or Flag-ERβ, treated with or without E3, immunoblot
[4] = biological target: Flag-tagged estrogen receptor alpha (Flag-ERα) (human) (UniProt P03372); test: co-IP; anti-Flag agarose IP from lysates of Ishikawa cells expressing Flag (Vec), Flag-ERα or Flag-ERβ, elution with 3xFlag peptide, immunoblot; Flag-ERα cells also pretreated with DMSO, E2, E3, BPA or DES (1 x 10^-6 M)

Row | binding [1] | binding [2] | binding [3] | binding [4] | Substance
1 | binds | binds |  |  | histone deacetylase 1 (HDAC1) (from UniProt Q13547 1-482) (enzyme)
2 | binds | binds | binds | binds | suppressor of Zeste 12 Protein (SUZ12) (from UniProt Q15022 1-739)
